In this test the target is recombinant integrin α5β1. The test is described as follows: figure legend: SPR sensorgrams and PLA.

No constants are given. Whether binding was seen depends on the method and setting. A result given as binding can be weak or reduced; the word gives no strength.

B1: recombinant human cANGPTL4 (C-terminal region of angiopoietin-like 4) (ligand, UniProt Q9BY76 186-406, looked up)
chain: RDCQELFQVGERQSGLFEIQPQGSPPFLVNCKMTSDGGWTVIQRRHDGSVDFNRPWEAYKAGFGDPHGEFWLGLEKVHSITGDRNSRLAVQLRDWDGNAELLQFSVHLGGEDTAYSLQLTAPVAGQLGATTVPPSGLSVPFSTWDQDHDLRRDKNCAKSLSGGWWFGTCSHSNLNGQYFRSIPQQRQKLKKGIFWKTWRGRYYPLQATTMLIQPMAAEAAS
notes: domain: c terminal region; the tag is not specified; also called rh-cANGPTL4; rhcANGPTL4
For B1, the binding entry is “binds”.

Values taken from US20140242084A1 (published 2014).
